{"source": "patent US8802728B2", "about": "“Analgesic compounds, methods, and formulations” (Eli Lilly and Company, priority 2011, dated 2014)", "system": "rat", "assay": "Rat tail flick assay (tail flick latency in response to heat)", "assay_type": "in vivo", "details": "IV in 20% HP-β-CD, 5 mg/kg", "from_the_text": "The Tail Flick Assay, based upon the methods of D'Amour & Smith (J. Pharmacol. Exp. Therap., 72: 74-79, 1941), is used to measure loss of pain sensation in the rat tail, allowing the experimenter to screen drugs for analgesic effect. Since then, the method has been used in a number of publications. For example, it was used to evaluate the analgesic effect of O-alkyl derivatives of tramadol by Liming Shao and Michael Hewitt etc. (Boiorganic & Medicinal Chemistry Letters, 18:1674-1680, 2008).\nA Tail Flick Unit is used to measure tail flick latency in response to heat. […]\nOn the day of experiment, the animals are tested to determine baseline latency. […] Baselines are recorded and those animals with a baseline latency of 2-5 seconds are used in the experiment. […] The Tail-flick latencies are measured at different timepoints for up to 180 minutes after administration of vehicle or test articles. […]\nI.R. Source is set at 40 units (determined to elicit tail flick response in desired 2-5 seconds in naïve animals).\nTest articles or vehicle are administered by intravenous (IV) injection through the tail vein or by oral gavage at time 0. […] Latency time (in seconds) is then recorded.\nData are recorded and graphed as % MPE (Maximum Possible Effect). % MPE is calculated using the following formula: % MPE=[(Test latency−Baseline latency)/(Cut off latency(10 sec.'s)−Baseline latency)]*100 […]", "note": "Some of these results come from one statement about several compounds together.", "data": [{"molecule": "COc1ccc(F)c([C@@]2(O)C[C@H]3CC[C@H](C3)[C@@H]2CN(C)C)c1", "note": "(stereo in doubt) [Example 5, 2-Dimethylaminomethyl-3-(2-fluoro-5-methoxy-phenyl)-bicyclo[3.2.1]octan-3-ol]", "values": [{"measurement": "% MPE (Maximum Possible Effect), tail flick", "value": "at least 50 % MPE"}]}]}
